For at least one entry, the source does not settle the construct or the ends of the probe. A negative result means that nothing was seen under these conditions.
Target: NLP7 RWP-RK DNA-binding domain (Arabidopsis thaliana) (UniProt Q84TH9)
Assay: EMSA
Conditions: 20 mM HEPES-KOH pH 7.6, 3 mM MgCl2, 2 mM DTT, 0.5 mM EDTA, 30 mM KCl, 30 mM NaCl, 10% glycerol, 0.5 ug poly[d(I-C)], room temperature; recombinant protein; protein details: His; label: biotin; probe letters rebuilt from the primers and the genome

Sequences of proteins named here, by UniProt entry; tags and fusion partners are left off. Residues count along the entry.
UniProt Q84TH9, 578-659: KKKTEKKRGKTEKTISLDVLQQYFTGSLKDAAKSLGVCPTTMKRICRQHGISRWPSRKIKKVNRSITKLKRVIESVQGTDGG

Binding result, no binding:
GCAAGCTTGTCAGCATGCGGAAAATAACAACGGTAGCTCAAGATGTGTGACCATGATTTTCCAAAACTAAAACTAAAAAAATAAATAAAGCAAATTAAATTTAAAAGAATTCTAACTCGCACAGCTGCAGTCTAGAC (double strand) [AO promoter P5]
GCAAGCTTGTCAGCATGCGGAACTTTAAATATGTGTTCATACATGCACCAAGCATGACCGACTAGAAGAATCATGGAAAAAGAACATTCACTTTTCCATGACTCGTGGCCAATGCAAATCTTCGCACAGCTGCAGTCTAGAC (double strand) [AO promoter P3]
GTCTAGACTGCAGCTGTGCGACTTTTTCCATGATTCTTCTAGTCGGTCATGCTTGGTGCATGTATGAACACATATTTAAAGTTCTATACAAGTTGTTAGAATTCTTTTAAATTTAATTTGCTCCGCATGCTGACAAGCTTGC (double strand) [AO promoter P4]
GTCTAGACTGCAGCTGTGCGATTTTCAGTTGTCTGATGGAAAATTCAGAAGCCACCACTTACAAATCAAAAGTATAAAAAAAGACTCAAAAGAAGACTCCAAAATCCAAATAGTTTTTCTCTCCGCATGCTGACAAGCTTGC (double strand) [AO promoter P1]
